Patent publication US9637476B2, “Atrasentan mandelate salts” (AbbVie Inc., priority 2013, dated 2017)
Where “and” joins values, the source holds several entries; their conditions need not be identical. Equal values may be shown once. Where a name gives a salt, the structure may show the parent alone. For part of these data: The name of at least one read-out is uncertain. Some entries share one result that the patent states for a list of compounds.

Tests used:
[1] = Oxidative stability (urea-H2O2 co-crystal, HPLC); format: physicochemical; conditions: urea-H2O2, 40° C., seven days; individual sample relative to freezer blank average
Protocol: About 1 mg of each solid was placed in a 4 mL glass vial and about 10 mg of urea-H2O2 co-crystal was placed in another 4 mL vial. The two vials then were connected by a connector (Kontes connector, 13-425X13-425, apt NO 747205-1313) and left in an oven at 40° C. for seven days. Blank samples were prepared by placing about 1 mg of each compound in a 4 mL vial and then storing the vial in a freezer at about −20° C. for the same period of time. The oven samples and freezer blanks were analyzed at the same time by HPLC. The measured data are reported in Table II-B below and the normalized data from Table II-B are shown in a bar chart in FIG. 3.

[2] = Moisture content at 80% relative humidity; format: physicochemical

Compound | SAMPLE RECOVERY PROPORTION (%) [1] | moisture content [2]
CCCCN(CCCC)C(=O)CN1C[C@H](c2ccc3c(c2)OCO3)[C@@H](C(=O)O)[C@@H]1c1ccc(OC)cc1 [Parent, (2R,3R,4S)-4-(1,3-benzodioxol-5-yl)-1-[2-(dibutylamino)-2-oxoethyl]-2-(4-methoxyphenyl)pyaolidine-3-carboxylic acid] | 91.69% and 89.60% and 87.39% | –
CCCCN(CCCC)C(=O)CN1C[C@H](c2ccc3c(c2)OCO3)[C@@H](C(=O)O)[C@@H]1c1ccc(OC)cc1 [Hydrochloride] | 91.18% and 90.76% and 86.49% | less than 2 % by weight
